The list shows only some results of the screen, not a fair sample: it gathers tests that were run many times, whatever their T/C, doses with no T/C, and many T/C values between a quarter and a half above the control. Further doses and runs are listed elsewhere. T/C is the treated group as % of the vehicle group. Some doses have a count of surviving animals in place of a T/C: the source files T/C as zero there, which appears to mark a toxic dose or a test without result, not a measured value. Some survivor counts are full or nearly so, which does not show that the dose was tolerated: survival well below the control is almost never listed, so the zero probably covers shortened survival too. Survivors were counted at the toxicity check, usually on the fifth day, unless a day is given; later deaths do not show. Schedules are NCI's codes, taken here to give the interval after Q, in days (D) or hours (H), and the number of doses after X. Some doses were run more than once; their values stand side by side, smallest first. Where survival is the endpoint, the PubChem record calls one and a half times the control and up active, and a quarter to a half above the control has no call in these data; cut-offs in other NCI protocols can differ.
Test system: L1210 leukemia ip in BDF1 mice, survival T/C
Assay: NCI In Vivo Anticancer Drug Screen. Data for tumor model L1210 Leukemia (intraperitoneal) in B6D2F1 (BDF1) mice
Details: T/C endpoint: mean survival time, higher T/C = longer survival
[1] = dose: 400.0 mg/kg/injection, schedule: Q01DX001 (ip), vehicle: saline
[2] = dose: 400.0 mg/kg/injection, schedule: Q01DX009 (ip), vehicle: carboxymethylcellulose (CMC)
[3] = dose: 100.0 mg/kg/injection, schedule: Q04DX002 (ip), vehicle: Klucel (hydroxypropylcellulose) (HPC)
[4] = dose: 200.0 mg/kg/injection, schedule: Q04DX002 (ip), vehicle: Klucel (hydroxypropylcellulose) (HPC)
[5] = dose: 400.0 mg/kg/injection, schedule: Q04DX002 (ip), vehicle: Klucel (hydroxypropylcellulose) (HPC)
[6] = dose: 50.0 mg/kg/injection, schedule: Q01DX009 (ip), vehicle: Klucel (hydroxypropylcellulose) (HPC)
[7] = dose: 400.0 mg/kg/injection, schedule: Q04DX003 (ip), vehicle: saline with Tween-80
[8] = dose: 300.0 mg/kg/injection, schedule: Q01DX001 (ip), vehicle: saline
[9] = dose: 100.0 mg/kg/injection, schedule: Q01DX009 (ip), vehicle: saline with Tween-80

O=C1C(CO)=C[C@@H](O)[C@H]2O[C@@H]12
survivor count (dose: 100.0 mg/kg/injection, schedule: Q01DX001 (ip), vehicle: saline): 2 of 4 | survivor count (dose: 200.0 mg/kg/injection, schedule: Q01DX001 (ip), vehicle: saline): 0 of 4 | survivor count [1]: 0 of 4

CCCCCCC(=O)N(CCCCC)CCCCC
survivor count [2]: 3 of 3 and 6 of 6

CN=C1CN(O)C(c2ccccc2)=c2cc(Cl)ccc2=N1
survivor count [1]: 0 of 6 | survivor count (dose: 400.0 mg/kg/injection, schedule: Q01DX009 (ip), vehicle: acetone): 0 of 6 | survivor count (dose: 400.0 mg/kg/injection, schedule: Q04DX003 (ip), vehicle: saline): 0 of 4

COc1ccc(C(=O)Nc2ccc(F)cc2)cc1
survivor count [2]: 5 of 6

Cc1cc(N=Nc2ccccc2C)ccc1N
survivor count (dose: 25.0 mg/kg/injection, schedule: Q01DX009 (ip), vehicle: DMSO): 4 of 6 | survivor count (dose: 50.0 mg/kg/injection, schedule: Q01DX009 (ip), vehicle: DMSO): 2 of 6 | survivor count (dose: 100.0 mg/kg/injection, schedule: Q04DX003 (ip), vehicle: DMSO): 6 of 6 | survivor count (dose: 200.0 mg/kg/injection, schedule: Q04DX003 (ip), vehicle: DMSO): 4 of 6 | survivor count (dose: 400.0 mg/kg/injection, schedule: Q04DX003 (ip), vehicle: DMSO): 4 of 6

Cc1cc(N(CCOS(C)(=O)=O)CCOS(C)(=O)=O)ccc1C=Nc1cc(Br)c(O)c(Br)c1
T/C (dose: 50.0 mg/kg/injection, schedule: Q04DX003 (ip), vehicle: Klucel (hydroxypropylcellulose) (HPC)): 126 % of control | T/C (dose: 100.0 mg/kg/injection, schedule: Q04DX003 (ip), vehicle: Klucel (hydroxypropylcellulose) (HPC)): 89, 127, 144, 153 % of control | survivor count (dose: 150.0 mg/kg/injection, schedule: Q04DX003 (ip), vehicle: Klucel (hydroxypropylcellulose) (HPC)): 5 of 6 | survivor count (dose: 200.0 mg/kg/injection, schedule: Q04DX003 (ip), vehicle: Klucel (hydroxypropylcellulose) (HPC)): 6 of 6 | survivor count (dose: 400.0 mg/kg/injection, schedule: Q04DX003 (ip), vehicle: Klucel (hydroxypropylcellulose) (HPC)): 1 of 6

CCSc1ccc2c(cc1=O)C(NC(C)=O)CCc1cc(OC)c(OC)c(OC)c1-2 (stereo unspecified)
survivor count [3]: 1 of 3 and 2 of 3 | survivor count [4]: 1 of 3 | survivor count [5]: 0 of 3

CC12C(=O)OCC1C1CCC2C1 (stereo unspecified)
survivor count [3]: 1 of 3 | survivor count [4]: 0 of 3 | survivor count [5]: 0 of 3

CC(O)C#N (stereo unspecified)
survivor count (dose: 10.0 mg/kg/injection, schedule: Q04DX003 (ip), vehicle: saline): 5 of 6 | survivor count (dose: 20.0 mg/kg/injection, schedule: Q04DX003 (ip), vehicle: saline): 1 of 6

O=C1/C(=C(/c2ccccc2)N2CCOCC2)Cc2ccccc21
survivor count (dose: 50.0 mg/kg/injection, schedule: Q04DX003 (ip), vehicle: saline with Tween-80): 5 of 6

CCOC(=O)Nc1cc2c(c(N)n1)N=C(CN(C)c1ccccc1)CN2
T/C (dose: 12.5 mg/kg/injection, schedule: Q01DX009 (ip), vehicle: Klucel (hydroxypropylcellulose) (HPC)): 127 % of control | T/C (dose: 25.0 mg/kg/injection, schedule: Q01DX009 (ip), vehicle: Klucel (hydroxypropylcellulose) (HPC)): 126 and 139 % of control | T/C [6]: 136 % of control | survivor count [6]: 6 of 6 | T/C (dose: 50.0 mg/kg/injection, schedule: Q04DX002 (ip), vehicle: Klucel (hydroxypropylcellulose) (HPC)): 127 % of control | survivor count (dose: 100.0 mg/kg/injection, schedule: Q01DX009 (ip), vehicle: Klucel (hydroxypropylcellulose) (HPC)): 0 of 6 | T/C [3]: 144 % of control | survivor count (dose: 200.0 mg/kg/injection, schedule: Q01DX009 (ip), vehicle: Klucel (hydroxypropylcellulose) (HPC)): 0 of 6 | survivor count [4]: 2 of 3

O=C(O)c1scc2c1CCCC2
survivor count [7]: 3 of 6

COc1ccc(SC2=C(N(C)C(C)=O)C(=O)c3ccccc3C2=O)cc1
survivor count (dose: 45.0 mg/kg/injection, schedule: Q01DX009 (ip), vehicle: Klucel (hydroxypropylcellulose) (HPC)): 0 of 6 | survivor count (dose: 60.0 mg/kg/injection, schedule: Q01DX001 (ip), vehicle: Klucel (hydroxypropylcellulose) (HPC)): 3 of 6 | survivor count (dose: 70.0 mg/kg/injection, schedule: Q01DX009 (ip), vehicle: Klucel (hydroxypropylcellulose) (HPC)): 0 of 6 | survivor count (dose: 75.0 mg/kg/injection, schedule: Q01DX001 (ip), vehicle: carboxymethylcellulose (CMC)): 3 of 6 | survivor count (dose: 105.0 mg/kg/injection, schedule: Q01DX009 (ip), vehicle: Klucel (hydroxypropylcellulose) (HPC)): 0 of 6 | survivor count (dose: 150.0 mg/kg/injection, schedule: Q01DX001 (ip), vehicle: carboxymethylcellulose (CMC)): 2 of 6 | survivor count (dose: 300.0 mg/kg/injection, schedule: Q01DX001 (ip), vehicle: carboxymethylcellulose (CMC)): 1 of 6

CCCCCC(=O)Nc1cccc(O)c1
survivor count [7]: 1 of 6

CC1CC(=O)C(CN(C)C)C(C)(C)C1 (stereo unspecified)
survivor count [8]: 0 of 6

CN(C)C(=O)Nc1ccc2c(c1)OCO2
survivor count (dose: 400.0 mg/kg/injection, schedule: Q01DX001 (ip), vehicle: Klucel (hydroxypropylcellulose) (HPC)): 3 of 6

CC=NC(C)(C)C
survivor count [9]: 3 of 3 | survivor count (dose: 200.0 mg/kg/injection, schedule: Q01DX009 (ip), vehicle: saline with Tween-80): 2 of 3

NC(=S)Nc1cccnc1
survivor count [3]: 1 of 3 | survivor count [4]: 1 of 3 | survivor count [5]: 0 of 3

COc1cc(C=O)ccc1OC(=O)Nc1ccc(F)c([N+](=O)[O-])c1
survivor count (dose: 200.0 mg/kg/injection, schedule: Q01DX009 (ip), vehicle: other): 2 of 6 | survivor count (dose: 400.0 mg/kg/injection, schedule: Q01DX009 (ip), vehicle: other): 0 of 6

CC(C)=CCC/C(C)=C\C1N(C)CCCN1C
survivor count [9]: 1 of 6 | survivor count (dose: 100.0 mg/kg/injection, schedule: Q04DX003 (ip), vehicle: saline with Tween-80): 5 of 6 and 6 of 6 | survivor count (dose: 200.0 mg/kg/injection, schedule: Q04DX003 (ip), vehicle: saline with Tween-80): 0 of 6 | survivor count [7]: 0 of 6

C[N+](C)(C)C1CC2CC1C2 (stereo unspecified)
survivor count (dose: 150.0 mg/kg/injection, schedule: Q01DX001 (ip), vehicle: saline): 2 of 6 | survivor count [8]: 0 of 6

O=C(O)C12C3(Cl)C4(Cl)C5(OCCO5)C5(Cl)C3(Cl)C1(Cl)C5(Cl)C42Cl (stereo unspecified)
survivor count [1]: 0 of 4

Reference: PubChem BioAssay AID248 (DTP/NCI, 2004)
